Reference: PubChem BioAssay AID686943 (Drosophila RNAi Screening Center, 2013)
Purpose: 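Search across the genome for regulators of signalling from receptor tyrosine kinase to ERK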 (primary screen). Cell system: Drosophila S2R+ haemocyte-like cells expressing YFP-tagged ERK (Rolled). Reagent: long dsRNA against Drosophila genes. Challenge: insulin stimulation versus unstimulated cells; dose and duration not given. Measured: 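Per-plate z-scores of phospho-ERK immunostaining normalised to YFP-tagged ERK, measured with and without insulin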. Direction: replicate 1, z-score of dpERK with insulin and replicate 2, z-score of dpERK with insulin: higher = more active ERK per ERK-YFP after insulin; replicate 1, z-score of dpERK under basal conditions: higher = more basal active ERK per ERK-YFP; replicate 1, z-score of ERK-YFP with insulin: higher = more YFP-tagged ERK signal.
The deposit covers about 23,000 reagents; below is a random part of those that have a named target and a result. 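Extra replicates exist only for a retested subset of genes; insulin dose and duration not given; both raised and lowered dpERK matter.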 Names joined by + are all predicted targets of the reagent. No sequences are given here. Not stated in the record: the amount of reagent, the time to read-out.

| Target gene | dsRNA | replicate 1, z-score of dpERK with insulin | replicate 2, z-score of dpERK with insulin | replicate 1, z-score of dpERK under basal conditions | replicate 1, z-score of ERK-YFP with insulin |
| --- | --- | --- | --- | --- | --- |
| Ssu72 | DRSC19572 | -0.12 | -0.44 | -0.18 | -0.32 |
| CG12499 | DRSC14521 | -2.11 | -0.38 | -0.38 | 1.81 |
| CG17065 | DRSC20544 | 0.99 | 0.28 | -0.05 | -0.11 |
| CG14260 | DRSC14755 | 1.19 | 0.02 | -0.72 | -1.78 |
| CG14615 | DRSC20627 | -0.88 | -0.21 | -0.21 | -0.16 |
| CG11537 | DRSC08200 | 0.09 | -0.2 | 0.86 | 0.45 |
| Nopp140 | DRSC11872 | 0.23 | 0.44 | -0.99 | 0.69 |
| vkg | DRSC03632 | 0.61 | 1.52 | 1.21 | 1.32 |
| CG31251 | DRSC16247 | -0.54 | -1.03 | 0.63 | 2.08 |
| CG2685 | DRSC18463 | -0.19 | -1.67 | -2.82 | -1.55 |
| E(spl)m7-HLH | DRSC16696 | 0.3 | 0.14 | 1.71 | 0.53 |
| CG7179 | DRSC03020 | 1.22 | 0.44 | 0.78 | 2.06 |
| CG5665 | DRSC11783 | 0.53 | -1.45 | 3.72 | -0.42 |
| CG9795 | DRSC12336 | 0.66 | 0.09 | 0.58 | 0 |
| Edg84A | DRSC12594 | 0.33 | -0.01 | 0.22 | 0.24 |
| Mccc2 | DRSC04987 | 0.04 | -1.1 | -0.9 | -0.1 |
| HLH4C | DRSC18670 | 0.65 | -0.86 | -2.04 | 0.31 |
| HLH4C | DRSC21322 | 0.47 | 0.46 | -1.02 | 0.06 |
| CG1941 | DRSC06802 | 0.39 | -0.08 | -0.79 | 0.19 |
| Pdp1 | DRSC08896 | -4.36 | -4.42 | -2.82 | -3.46 |
| Pdp1 | DRSC08897 | -4.79 | -3.57 | -2.27 | -2.65 |
| Pdp1 | DRSC11251 | -0.78 | 0.16 | -0.62 | -0.37 |
| CG14207 | DRSC19562 | 0.45 | 0.03 | 1.36 | 0.25 |
| CG14207 | DRSC19563 | -1.5 | -0.09 | 0.72 | 0.22 |
| CG15865 | DRSC19733 | 0.28 | 0.48 | -0.07 | 0.73 |
| Ent2 | DRSC02124 | -0.15 | -0.31 | 0.29 | -0.3 |
| Arr2 | DRSC09670 | 0.21 | 0.3 | -0.99 | -0.08 |
| CG1575 | DRSC18069 | 0.22 | 0.81 | -0.93 | 0.09 |
| ZnT49B | DRSC07225 | 0.91 | 1.22 | -0.27 | 0.11 |
| scramb1 | DRSC09724 | -0.29 | -0.7 | 0.17 | -0.3 |
| scramb1 | DRSC10667 | 0.46 | 0.16 | -1.2 | 0.51 |
| scramb1 | DRSC10668 | -0.08 | -0.17 | -0.22 | 0.13 |
| Cyp6t2Psi | DRSC01840 | -0.4 | 2.59 | -0.17 | 0.26 |
| CG2604 | DRSC12313 | -0.5 | -0.91 | -0.6 | 0.12 |

Copied from the entries so far for reference:
| Target gene | dsRNA | replicate 1, z-score of dpERK with insulin | replicate 2, z-score of dpERK with insulin | replicate 1, z-score of dpERK under basal conditions | replicate 1, z-score of ERK-YFP with insulin |
| --- | --- | --- | --- | --- | --- |
| CG15865 | DRSC19733 | 0.28 | 0.48 | -0.07 | 0.73 |
| Ent2 | DRSC02124 | -0.15 | -0.31 | 0.29 | -0.3 |
| Arr2 | DRSC09670 | 0.21 | 0.3 | -0.99 | -0.08 |
| CG1575 | DRSC18069 | 0.22 | 0.81 | -0.93 | 0.09 |

Next reagents follow:
| Target gene | dsRNA | replicate 1, z-score of dpERK with insulin | replicate 2, z-score of dpERK with insulin | replicate 1, z-score of dpERK under basal conditions | replicate 1, z-score of ERK-YFP with insulin |
| --- | --- | --- | --- | --- | --- |
| CG13428 | DRSC06390 | 0.24 | 0.97 | -1.31 | 1.33 |
| Jon25Bi | DRSC03434 | -0.68 | 0.07 | 0.58 | 0.6 |
| Dcp-1 | DRSC04609 | 0.31 | 0.23 | 0.39 | 0.97 |
| Tsp29Fb | DRSC03233 | 0.06 | 0.05 | 1.1 | 0.12 |
| CG5693 | DRSC02878 | 0.07 | 0.53 | 0 | -0.21 |
| dx | DRSC18767 | -0.85 | 0.07 | 0.19 | 0.69 |
| Tsp42El | DRSC06186 | 0.48 | -0.19 | -1.11 | -0.79 |
| CG17097 | DRSC02569 | 0.11 | 0.67 | -0.44 | -0.49 |
| Col4a1 | DRSC03291 | 0.3 | 0.33 | 0.2 | 1.03 |
| CG12546 + CG14452 | DRSC11709 | -0.17 | -0.38 | -0.83 | -0.78 |
| CG9300 | DRSC11064 | -0.5 | -0.07 | -0.25 | 0.27 |
| park | DRSC11618 | -0.13 | 0.21 | -0.18 | 0.01 |
| CG17258 | DRSC00495 | 0.4 | 2.38 | 0.85 | 1.69 |
| CG17258 | DRSC22709 | 0.2 | 0.36 | 0.1 | -0.12 |
| SmB | DRSC03437 | 1.48 | 1.22 | -3.14 | -6.18 |
| CG5888 | DRSC01929 | -0.57 | -0.74 | -0.43 | -1.44 |
| CG17129 | DRSC08508 | -0.3 | -0.33 | 0.63 | -0.51 |
| Tango1 | DRSC02127 | -0.47 | 0 | -0.58 | 0.38 |
| ATPsynF | DRSC04482 | -0.17 | 0.52 | -0.29 | 1.22 |
| Gr93a | DRSC14593 | -0.22 | -0.08 | -1.04 | 0.26 |
| CG14356 | DRSC14819 | 0.96 | -1.49 | 0.02 | 0.08 |
| ND-30 | DRSC08243 | -0.23 | -0.55 | 1.34 | -0.05 |
| CtsB | DRSC19361 | 0.14 | -0.28 | -0.45 | -0.22 |
| CG9084 | DRSC07335 | -0.56 | -0.25 | 0.03 | -0.73 |
| CG10194 | DRSC02025 | 0.15 | 0.31 | 0.07 | -0.06 |
| Cand1 | DRSC01992 | 0.23 | 1.16 | 2.06 | -0.55 |
| CG1909 | DRSC17150 | 0.05 | 0.23 | -0.76 | 0.07 |
| CG1529 | DRSC20515 | 0.04 | -1.02 | 0.74 | 0.13 |
| betaggt-I | DRSC03494 | 0.38 | 0.14 | -1.02 | 0.1 |
| CG32945 | DRSC12014 | 0.02 | 0.81 | 0 | 0.29 |
| CG30154 | DRSC05889 | 0.33 | -0.65 | 0.81 | 0.12 |
| Cul1 | DRSC07645 | 1.26 | 1.79 | -0.36 | -0.8 |
| Cpr97Ea | DRSC15974 | 0.18 | 1.88 | 0.09 | 0.08 |
| CG7997 | DRSC07052 | -0.21 | 0.03 | -0.48 | -1.04 |
| CG31643 | DRSC00906 | 0.3 | 1.24 | -0.1 | -0.35 |
| LManIII | DRSC03221 | 0.1 | -0.09 | 0.37 | -1.2 |
| CG14795 | DRSC18513 | 0.64 | 0.93 | -0.79 | -1.43 |
| CG4069 | DRSC10396 | -0.16 | 0.99 | -0.73 | -0.37 |
| Lcp65Ac | DRSC11210 | -0.36 | -0.17 | 0.12 | 0.2 |
